The source of these data is patent EP3930714B1, “USE OF CASEINOLYTIC PROTEASE P FUNCTION AS A BIOMARKER OF DRUG RESPONSE TO IMIPRIDONE-LIKE AGENTS AND COMPOUNDS FOR SUCH USE” (dated 2026).

Protein sequences, listed by entry. Tags and fused reporters are not part of them. Residues count along the entry.
UniProt Q16740, 57-277 limits assumed: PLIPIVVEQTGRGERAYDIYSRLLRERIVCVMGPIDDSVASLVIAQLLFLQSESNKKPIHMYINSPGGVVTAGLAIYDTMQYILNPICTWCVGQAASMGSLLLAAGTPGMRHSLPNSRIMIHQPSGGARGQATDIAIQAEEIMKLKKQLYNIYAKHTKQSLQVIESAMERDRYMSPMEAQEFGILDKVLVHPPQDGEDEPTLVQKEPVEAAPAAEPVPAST

For assay [1], the target named is recombinant human caseinolytic peptidase hClpP (Homo sapiens, UniProt Q16740). The experiment in a line: hClpP peptide hydrolysis assay (coumarin release from Ac-WLA-AMC). To be noted: purified hClpP.
Assay [2] concerns MDA-MB-231 (MDA 231, human breast adenocarcinoma). The experiment in a line: Cancer cell viability, CCK-8 assay, MDA-MB-231. To be noted: read-out: IC50 (uM, MDA 231), MDA 231, 48 hours incubation.
Assay [3] deals with HCT116 (human colon cancer). The experiment in a line: Cancer cell viability, CCK-8 assay, HCT116. The settings on record: read-out: IC50 (uM, HCT116), HCT116, 48 hours incubation.

The match of structure and compound is tentative.

Turning to `N#Cc1cccc(CN2CC3=C(C2)N2CCN=C2N(Cc2ccc(Cl)cc2)C3=O)c1`, in assay [1], the “Dose-dependency of hClpP activation” value was “Dose-dependent increases in hClpP activity”.
Regarding `O=C1C2=C(CCN(Cc3ccccc3)C2)N2CCN=C2N1Cc1ccc(C(F)(F)F)cc1`, the IC50 in assay [2] was determined as 0.05 µM; in assay [3], 0.03 µM.
